Results taken from the supplement of paper PMC10849652.
The list shows a part of the results.

By UniProt entry, the sequences of proteins in these tests, tags left out. Where a name states a change or a piece, a line headed by the entry shows the natural chain unless it says otherwise.
UniProt Q9H2J1: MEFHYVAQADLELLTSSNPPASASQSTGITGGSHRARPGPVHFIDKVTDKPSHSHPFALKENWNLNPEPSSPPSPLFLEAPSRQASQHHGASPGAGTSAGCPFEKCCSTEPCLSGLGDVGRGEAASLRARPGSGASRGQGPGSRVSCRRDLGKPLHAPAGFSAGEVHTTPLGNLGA
UniProt Q96C12: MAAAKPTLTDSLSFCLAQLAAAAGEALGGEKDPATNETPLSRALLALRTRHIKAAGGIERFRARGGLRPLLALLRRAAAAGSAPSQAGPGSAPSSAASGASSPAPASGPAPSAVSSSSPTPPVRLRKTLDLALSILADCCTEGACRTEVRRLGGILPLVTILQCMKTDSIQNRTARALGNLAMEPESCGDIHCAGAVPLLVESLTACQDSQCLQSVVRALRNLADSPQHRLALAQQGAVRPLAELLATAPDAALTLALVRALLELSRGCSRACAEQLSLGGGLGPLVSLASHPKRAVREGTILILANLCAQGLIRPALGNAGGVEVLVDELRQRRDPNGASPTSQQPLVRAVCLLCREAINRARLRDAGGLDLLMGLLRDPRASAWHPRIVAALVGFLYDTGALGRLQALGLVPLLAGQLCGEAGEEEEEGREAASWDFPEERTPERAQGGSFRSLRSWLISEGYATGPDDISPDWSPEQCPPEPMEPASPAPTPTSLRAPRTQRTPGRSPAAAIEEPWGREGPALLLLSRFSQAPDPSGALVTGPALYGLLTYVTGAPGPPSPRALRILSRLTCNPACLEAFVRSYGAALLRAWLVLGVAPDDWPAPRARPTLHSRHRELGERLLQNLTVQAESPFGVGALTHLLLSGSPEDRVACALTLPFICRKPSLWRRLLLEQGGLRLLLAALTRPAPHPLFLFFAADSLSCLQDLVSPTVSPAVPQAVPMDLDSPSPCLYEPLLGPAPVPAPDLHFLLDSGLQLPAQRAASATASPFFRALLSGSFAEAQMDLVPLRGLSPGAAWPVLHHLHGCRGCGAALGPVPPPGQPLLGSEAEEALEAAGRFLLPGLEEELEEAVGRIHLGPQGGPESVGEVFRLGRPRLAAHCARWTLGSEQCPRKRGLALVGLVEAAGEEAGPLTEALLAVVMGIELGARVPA
UniProt P29972: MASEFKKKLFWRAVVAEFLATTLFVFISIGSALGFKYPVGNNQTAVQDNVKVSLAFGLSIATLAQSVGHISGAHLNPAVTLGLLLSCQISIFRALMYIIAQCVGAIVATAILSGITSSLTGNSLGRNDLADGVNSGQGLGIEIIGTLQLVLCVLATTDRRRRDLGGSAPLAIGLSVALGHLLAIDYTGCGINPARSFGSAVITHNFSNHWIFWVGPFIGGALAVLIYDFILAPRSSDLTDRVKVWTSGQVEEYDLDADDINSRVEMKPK
UniProt Q6ZUM4: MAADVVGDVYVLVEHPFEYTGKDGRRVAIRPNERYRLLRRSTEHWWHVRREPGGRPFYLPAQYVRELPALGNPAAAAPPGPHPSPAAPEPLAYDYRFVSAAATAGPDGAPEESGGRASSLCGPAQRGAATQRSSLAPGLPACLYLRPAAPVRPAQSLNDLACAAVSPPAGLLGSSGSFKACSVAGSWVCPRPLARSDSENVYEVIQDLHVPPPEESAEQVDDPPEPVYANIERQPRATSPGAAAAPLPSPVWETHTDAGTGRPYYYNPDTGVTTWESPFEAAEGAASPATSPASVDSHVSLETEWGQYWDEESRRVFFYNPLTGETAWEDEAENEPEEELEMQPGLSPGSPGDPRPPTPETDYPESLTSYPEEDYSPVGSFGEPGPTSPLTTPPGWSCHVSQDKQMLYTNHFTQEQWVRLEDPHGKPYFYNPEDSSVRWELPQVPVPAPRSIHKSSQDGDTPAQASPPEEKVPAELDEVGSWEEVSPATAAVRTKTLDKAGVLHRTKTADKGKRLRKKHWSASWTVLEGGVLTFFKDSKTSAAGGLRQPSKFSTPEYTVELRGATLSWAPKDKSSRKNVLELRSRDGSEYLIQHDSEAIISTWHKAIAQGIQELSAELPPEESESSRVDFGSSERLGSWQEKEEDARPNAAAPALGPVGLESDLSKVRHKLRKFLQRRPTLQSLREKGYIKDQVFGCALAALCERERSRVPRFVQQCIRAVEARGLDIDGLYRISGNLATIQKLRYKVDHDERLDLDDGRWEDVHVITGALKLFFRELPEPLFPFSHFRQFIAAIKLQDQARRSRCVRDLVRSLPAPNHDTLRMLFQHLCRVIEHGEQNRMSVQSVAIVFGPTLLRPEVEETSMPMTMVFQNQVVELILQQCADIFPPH
UniProt Q7Z2E3: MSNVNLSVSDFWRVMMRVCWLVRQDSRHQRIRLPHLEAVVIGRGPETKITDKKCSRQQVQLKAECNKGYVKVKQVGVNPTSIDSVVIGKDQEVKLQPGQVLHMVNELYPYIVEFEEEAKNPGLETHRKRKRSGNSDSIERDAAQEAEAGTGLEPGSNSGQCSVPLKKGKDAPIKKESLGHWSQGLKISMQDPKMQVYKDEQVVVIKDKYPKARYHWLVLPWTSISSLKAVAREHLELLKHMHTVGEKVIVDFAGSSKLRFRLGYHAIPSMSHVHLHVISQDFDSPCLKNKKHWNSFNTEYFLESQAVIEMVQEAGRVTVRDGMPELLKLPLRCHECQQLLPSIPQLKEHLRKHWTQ
UniProt O43150: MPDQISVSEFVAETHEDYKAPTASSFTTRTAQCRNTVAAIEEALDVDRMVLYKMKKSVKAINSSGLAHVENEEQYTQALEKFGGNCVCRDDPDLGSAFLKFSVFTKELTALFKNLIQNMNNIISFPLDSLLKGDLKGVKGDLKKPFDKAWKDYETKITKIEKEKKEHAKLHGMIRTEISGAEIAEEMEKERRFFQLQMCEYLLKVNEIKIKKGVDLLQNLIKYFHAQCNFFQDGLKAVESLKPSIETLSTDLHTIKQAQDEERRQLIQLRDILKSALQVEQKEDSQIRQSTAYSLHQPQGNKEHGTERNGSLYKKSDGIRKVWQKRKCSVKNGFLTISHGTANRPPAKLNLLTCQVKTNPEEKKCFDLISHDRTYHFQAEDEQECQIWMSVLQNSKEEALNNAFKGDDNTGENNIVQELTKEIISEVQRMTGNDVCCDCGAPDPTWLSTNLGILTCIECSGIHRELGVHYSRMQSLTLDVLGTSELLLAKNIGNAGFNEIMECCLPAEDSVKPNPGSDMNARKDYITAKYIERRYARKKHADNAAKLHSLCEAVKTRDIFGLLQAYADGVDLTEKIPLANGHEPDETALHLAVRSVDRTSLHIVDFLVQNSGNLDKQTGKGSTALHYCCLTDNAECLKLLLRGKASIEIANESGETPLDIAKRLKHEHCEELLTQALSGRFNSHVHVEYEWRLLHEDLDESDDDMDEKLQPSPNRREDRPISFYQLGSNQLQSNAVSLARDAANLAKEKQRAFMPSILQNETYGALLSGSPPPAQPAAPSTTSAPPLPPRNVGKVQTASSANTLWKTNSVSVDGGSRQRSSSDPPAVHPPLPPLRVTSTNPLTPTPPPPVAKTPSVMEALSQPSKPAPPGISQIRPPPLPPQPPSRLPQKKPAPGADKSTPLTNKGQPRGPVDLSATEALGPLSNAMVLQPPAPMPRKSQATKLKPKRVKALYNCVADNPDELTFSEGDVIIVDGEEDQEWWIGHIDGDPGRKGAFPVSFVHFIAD
UniProt P02656: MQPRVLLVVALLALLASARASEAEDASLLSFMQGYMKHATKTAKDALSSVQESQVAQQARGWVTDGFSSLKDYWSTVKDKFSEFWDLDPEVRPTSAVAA
UniProt Q9Y576: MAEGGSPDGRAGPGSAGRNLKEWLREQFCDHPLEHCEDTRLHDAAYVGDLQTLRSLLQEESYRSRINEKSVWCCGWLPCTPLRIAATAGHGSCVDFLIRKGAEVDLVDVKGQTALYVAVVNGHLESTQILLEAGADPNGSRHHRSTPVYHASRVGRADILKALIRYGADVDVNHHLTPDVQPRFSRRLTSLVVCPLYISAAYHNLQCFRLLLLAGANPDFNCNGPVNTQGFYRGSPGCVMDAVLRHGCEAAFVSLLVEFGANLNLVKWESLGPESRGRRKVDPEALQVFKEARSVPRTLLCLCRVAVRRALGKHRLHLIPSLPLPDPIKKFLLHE
UniProt Q92624: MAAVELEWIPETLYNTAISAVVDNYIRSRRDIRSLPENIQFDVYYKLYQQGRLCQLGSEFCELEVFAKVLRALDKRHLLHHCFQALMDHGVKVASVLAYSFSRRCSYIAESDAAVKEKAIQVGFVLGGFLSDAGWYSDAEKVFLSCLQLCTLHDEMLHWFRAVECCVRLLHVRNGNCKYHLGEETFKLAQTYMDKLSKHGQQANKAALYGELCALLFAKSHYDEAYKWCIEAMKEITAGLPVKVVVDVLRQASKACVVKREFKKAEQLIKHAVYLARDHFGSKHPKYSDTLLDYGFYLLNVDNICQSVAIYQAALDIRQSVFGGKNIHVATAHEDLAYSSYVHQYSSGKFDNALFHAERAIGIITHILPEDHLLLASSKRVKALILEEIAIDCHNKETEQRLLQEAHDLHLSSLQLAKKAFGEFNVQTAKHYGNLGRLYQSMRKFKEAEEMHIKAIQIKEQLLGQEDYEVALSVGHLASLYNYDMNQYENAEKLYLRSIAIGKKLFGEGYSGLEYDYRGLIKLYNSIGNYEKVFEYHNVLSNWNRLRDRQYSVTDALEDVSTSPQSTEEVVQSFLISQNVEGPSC
UniProt Q8IWW6: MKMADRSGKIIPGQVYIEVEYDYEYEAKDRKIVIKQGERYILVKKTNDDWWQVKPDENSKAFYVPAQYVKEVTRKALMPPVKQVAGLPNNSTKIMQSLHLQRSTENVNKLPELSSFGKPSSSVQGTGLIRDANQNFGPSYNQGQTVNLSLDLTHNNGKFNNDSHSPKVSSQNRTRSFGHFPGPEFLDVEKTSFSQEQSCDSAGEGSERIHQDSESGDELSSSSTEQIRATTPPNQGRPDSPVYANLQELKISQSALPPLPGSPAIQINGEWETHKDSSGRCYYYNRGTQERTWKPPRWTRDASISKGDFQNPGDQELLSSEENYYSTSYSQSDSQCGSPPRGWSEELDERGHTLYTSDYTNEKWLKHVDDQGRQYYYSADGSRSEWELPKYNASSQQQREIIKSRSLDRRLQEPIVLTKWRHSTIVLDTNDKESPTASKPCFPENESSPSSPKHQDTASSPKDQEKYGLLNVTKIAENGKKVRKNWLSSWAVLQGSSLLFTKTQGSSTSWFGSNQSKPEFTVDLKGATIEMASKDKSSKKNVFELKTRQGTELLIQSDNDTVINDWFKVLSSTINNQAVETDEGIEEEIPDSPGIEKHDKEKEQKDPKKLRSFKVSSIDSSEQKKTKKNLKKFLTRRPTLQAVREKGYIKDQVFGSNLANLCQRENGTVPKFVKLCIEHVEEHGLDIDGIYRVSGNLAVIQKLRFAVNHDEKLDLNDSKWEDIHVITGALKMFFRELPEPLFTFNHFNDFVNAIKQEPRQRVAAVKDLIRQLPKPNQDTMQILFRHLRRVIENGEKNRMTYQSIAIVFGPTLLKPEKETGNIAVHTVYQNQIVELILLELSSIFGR
UniProt Q8N264: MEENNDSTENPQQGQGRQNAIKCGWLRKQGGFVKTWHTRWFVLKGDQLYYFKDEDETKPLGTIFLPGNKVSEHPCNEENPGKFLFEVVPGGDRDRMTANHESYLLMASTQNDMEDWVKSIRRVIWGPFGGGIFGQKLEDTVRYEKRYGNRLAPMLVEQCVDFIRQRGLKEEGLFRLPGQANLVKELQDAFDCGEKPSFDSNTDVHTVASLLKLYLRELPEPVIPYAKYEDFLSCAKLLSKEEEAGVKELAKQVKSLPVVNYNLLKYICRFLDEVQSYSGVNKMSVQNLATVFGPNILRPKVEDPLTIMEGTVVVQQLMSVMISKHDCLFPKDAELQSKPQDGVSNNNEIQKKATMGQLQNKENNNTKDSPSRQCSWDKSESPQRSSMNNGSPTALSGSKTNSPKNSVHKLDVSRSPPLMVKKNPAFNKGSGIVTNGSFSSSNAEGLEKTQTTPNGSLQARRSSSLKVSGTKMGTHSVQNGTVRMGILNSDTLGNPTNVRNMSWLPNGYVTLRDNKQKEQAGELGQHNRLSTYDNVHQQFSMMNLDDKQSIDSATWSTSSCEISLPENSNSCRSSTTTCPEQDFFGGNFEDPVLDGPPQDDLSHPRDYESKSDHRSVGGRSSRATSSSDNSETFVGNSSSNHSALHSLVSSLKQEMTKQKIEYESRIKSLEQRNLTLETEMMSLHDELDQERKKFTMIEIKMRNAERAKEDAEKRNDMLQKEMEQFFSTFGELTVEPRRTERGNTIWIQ

Legend:
Test in all cases: log2 fold change, soluble protein after heating vs DMSO (PISA); higher = thermal stabilisation; K562 lysate, 10 uM; active = over 0.2 and 3.5 SD of the protein, either way, in both replicates (recomputed)
[1] = compound: C[C@H](C1=CC=C(C=C1)C(=O)NC2=C3C=CNC3=NC=C2)N
Method in brief: (§1)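 A 30 min treatment with 10 μM compound was applied to crude K562 extract at 1 mg/mL protein in PBS pH 7.4 with 1 mM MgCl2. Heating for 3 min spanned 48°C-58°C, after which aliquots were pooled, adjusted to 0.5% NP-40 at 4°C and spun at 21,000xg for 90 min. TMTpro 16plex LC-MS/MS of the supernatant, with channel sums equalised, gave values recorded as log-two fold change in thermal stability against solvent controls, from duplicates.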

[2] = compound: Cc1cc(Nc2cc(CN3CCOCC3)c3nc(C)c(Cc4ccc(Cl)cc4F)n3n2)n[nH]1 [gandotinib]
Method in brief: as §1

[3] = compound: Cc1cccc(CC(=O)N2CCc3c2ccc(-c2cn(C)c4ncnc(N)c24)c3F)n1
Method in brief: as §1

[4] = compound: Cc1cn(-c2cc(NC(=O)c3ccc(C)c(Nc4nccc(-c5cccnc5)n4)c3)cc(C(F)(F)F)c2)cn1 [nilotinib]
Method in brief: as §1

[5] = compound: Cc1nc(Nc2n[nH]c3c2CN(C(=O)N[C@H](CN(C)C)c2ccccc2)C3(C)C)c2sccc2n1
Method in brief: as §1

[6] = compound: Cc1ncc(-c2ccnc(Nc3ccc(S(C)(=O)=O)cc3)n2)n1C(C)C
Method in brief: as §1

[7] = compound: Cn1cncc1[C@@](N)(c1ccc(Cl)cc1)c1ccc2c(c1)c(-c1cccc(Cl)c1)cc(=O)n2C [tipifarnib]
Method in brief: as §1

[8] = compound: CS(=O)(=O)N1CCN(Cc2cc3nc(-c4cccc5[nH]ncc45)nc(N4CCOCC4)c3s2)CC1 [pictilisib]
Method in brief: as §1

[9] = compound: Cc1ccc(NC(=O)c2ccc(CN3CC[C@H](N(C)C)C3)c(C(F)(F)F)c2)cc1Nc1nccc(-c2cncnc2)n1 [bafetinib]
Method in brief: as §1

[10] = compound: CS(=O)(=O)CCNCc1ccc(-c2ccc3ncnc(Nc4ccc(OCc5cccc(F)c5)c(Cl)c4)c3c2)o1 [lapatinib]
Method in brief: as §1

[11] = compound: C[C@H](Nc1ncnc2nc[nH]c12)c1cc2cccc(Cl)c2c(=O)n1-c1ccccc1 [duvelisib]
Method in brief: as §1

[12] = compound: Cc1nc(Nc2ncc(C(=O)Nc3c(C)cccc3Cl)s2)cc(N2CCN(CCO)CC2)n1 [dasatinib]
Method in brief: as §1

[13] = compound: Cn1cc(-c2ccc3c(c2)CCN3C(=O)Cc2cccc(C(F)(F)F)c2)c2c(N)ncnc21
Method in brief: as §1

[14] = compound: NC(=O)c1cnc(N[C@@H]2CCCC[C@@H]2N)nc1Nc1cccc(-n2nccn2)c1
Method in brief: as §1

[15] = compound: NC1(c2ccc(-c3nc4ccn5c(=O)[nH]nc5c4cc3-c3ccccc3)cc2)CCC1
Method in brief: as §1

[16] = compound: C[C@@H](Oc1cc(-c2cnn(C3CCNCC3)c2)cnc1N)c1c(Cl)ccc(F)c1Cl [crizotinib]
Method in brief: as §1

[17] = compound: Cc1cc(Nc2cc(N3CCN(C)CC3)nc(Sc3ccc(NC(=O)C4CC4)cc3)n2)n[nH]1 [tozasertib]
Method in brief: as §1

[18] = compound: Cc1ccc(-n2nc(C(C)(C)C)cc2NC(=O)Nc2ccc(OCCN3CCOCC3)c3ccccc23)cc1 [doramapimod]
Method in brief: as §1

[19] = compound: Cn1cc(CNCC2CCN(c3ncc(C(=O)NO)cn3)CC2)c2ccccc21 [quisinostat]
Method in brief: as §1

[20] = compound: NC(=O)Nc1cc(-c2cccc(F)c2)sc1C(=O)N[C@H]1CCCNC1
Method in brief: as §1

Measured: log2 fold change

ARRDC1-AS1 (UniProt Q9H2J1)
inactive: [1] -0.007 | [2] 0.005 | [3] -0.108 | [4] 0.191 | [5] 0.165 | [6] -0.001 | [7] 0.044

ARMC5 (UniProt Q96C12)
inactive: [1] -0.064 | [2] -0.173 | [3] 0.059

AQP1 (UniProt P29972)
inactive: [1] -0.04 | [2] 0.064 | [3] 0.117

ARHGAP27 (UniProt Q6ZUM4)
inactive: [8] 0.045 | [9] 0.051

ARHGEF40 (UniProt Q8TER5)
inactive: [10] -0.005 | [11] -0.162 | [4] -0.164 | [5] 0.031 | [12] 0.004 | [6] -0.016 | [13] 0.086 | [7] 0.06 | [14] 0.07 | [15] 0.086

ARID4A (UniProt P29374)
inactive: [1] -0.06 | [11] -0.046 | [2] -0.153 | [3] 0.145 | [4] -0.02 | [5] 0.063 | [12] -0.039 | [6] 0.028 | [13] -0.079 | [7] -0.12 | [15] -0.028

APTX isoform 4 (UniProt Q7Z2E3)
inactive: [1] -0.044 | [2] 0.034 | [3] -0.037 | [4] 0.129 | [5] 0.01 | [6] -0.065 | [7] 0.214

ASAP2 (UniProt O43150)
inactive: [10] 0.071 | [14] -0.058

APOC3 (UniProt P02656)
inactive: [16] -0.129 | [11] 0.051 | [17] 0.016 | [18] -0.014 | [12] -0.225 | [13] 0.21 | [19] 0.245 | [20] -0.097

ASB1 (UniProt Q9Y576)
inactive: [8] 0.071 | [16] 0.029 | [1] 0.232 | [2] -0.314 | [17] 0.05 | [18] -0.048 | [9] -0.116 | [3] 0.009 | [4] 0.006 | [5] -0.06 | [6] 0.125 | [19] -0.04 | [7] 0.058 | [20] 0.027

APPBP2 (UniProt Q92624)
inactive: [8] -0.222 | [16] -0.132 | [1] -0.224 | [2] -0.086 | [18] -0.078 | [9] 0.026 | [3] 0.021 | [19] 0.037 | [20] 0.17 | [15] -0.059

ARMC8 (UniProt C9JAA7)
inactive: [17] -0.068

ARHGAP12 isoform 3 (UniProt Q8IWW6)
inactive: [1] 0.054 | [11] -0.068 | [2] -0.048 | [3] -0.109 | [12] 0.046 | [13] 0.148

ARHGAP24 (UniProt Q8N264)
inactive: [1] 0.187 | [2] -0.018 | [17] 0.067 | [3] -0.015 | [4] 0.016 | [5] 0.074 | [6] 0.15 | [7] -0.031 | [15] -0.111
